These are yes or no findings as the source states them, for the method shown. Some entries that bind do so weakly or less than the wild type.
Columns and labels:
[1] = target: Nectin-4 IgV-like domain Fc fusion recombinant protein (Nec4-V) (human) (UniProt Q96NY8); experiment: ELISA on coated Fc fusion
[2] = target: Nectin-4 IgV-like domain Fc fusion recombinant protein (Nec4-V) (human) (UniProt Q96NY8); experiment: ELISA on coated Fc fusion, peroxidase-conjugated antibody
[3] = target: Nectin-4 extracellular domain Fc fusion recombinant protein (Nec4-VCC) (human) (UniProt Q96NY8); experiment: as above
[4] = target: Nectin-4 expressed by normal differentiated human keratinocytes (NHEK) (human) (UniProt Q96NY8); experiment: flow cytometry on normal differentiated human keratinocytes (NHEK), 8 pM-33 nM
[5] = target: human Nectin-4 on CHO cells transfected with human Nectin-4 cDNA (human) (UniProt Q96NY8); experiment: flow cytometry competition on CHO cells with human Nectin-4; competitor Nec1-VCC
[6] = target: human Nectin-4 with N-terminal Flag epitope tag, on transfected MDA-MB231 cells (human) (UniProt Q96NY8); experiment: flow cytometry on MDA-MB231 cells transfected with N-terminally Flag-tagged Nectin-4

Chains of the proteins cited; added tags and fusions are not shown. Lines headed by an entry give the natural chain unless they say otherwise; changes in a name come on top. A line that says so, or that is headed by a name, gives the form on record, which may keep a tag or linker. Residues count along the entry.
UniProt Q96NY8: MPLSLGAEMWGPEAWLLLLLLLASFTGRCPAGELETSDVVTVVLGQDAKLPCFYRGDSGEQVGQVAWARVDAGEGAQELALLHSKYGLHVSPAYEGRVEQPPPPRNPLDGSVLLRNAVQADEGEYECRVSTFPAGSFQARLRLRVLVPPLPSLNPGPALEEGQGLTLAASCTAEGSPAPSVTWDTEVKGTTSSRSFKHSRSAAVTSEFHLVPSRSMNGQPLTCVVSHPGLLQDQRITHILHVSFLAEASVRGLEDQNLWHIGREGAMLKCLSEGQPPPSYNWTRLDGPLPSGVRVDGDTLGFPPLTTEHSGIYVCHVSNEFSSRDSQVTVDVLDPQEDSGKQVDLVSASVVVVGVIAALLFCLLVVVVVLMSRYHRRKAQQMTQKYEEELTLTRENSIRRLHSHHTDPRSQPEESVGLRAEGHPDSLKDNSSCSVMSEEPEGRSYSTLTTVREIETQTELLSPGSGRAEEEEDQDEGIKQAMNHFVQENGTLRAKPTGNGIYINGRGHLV
human Nectin-4 with N-terminal Flag epitope tag, on transfected MDA-MB231 cells: residues 32-510 of Q96NY8
Nectin-4 extracellular domain Fc fusion recombinant protein (Nec4-VCC): residues 32-349 of Q96NY8
Nectin-4 IgV-like domain Fc fusion recombinant protein (Nec4-V): residues 32-147 of Q96NY8

binding [1]: binds | binding [2]: binds | binding [3]: binds | binding [4]: binds | binding [5]: binds | binding [6]: binds
B1: Ch-15A7.5 (antibody, V domains shown)
VH: EVKLVESGGGLVQPGGSRKLSCAASGFTFSNYGMAWVRQAPGKGPEWVAFISNLAYGINYADTVTGRFTISRENAKNTLYLEMRSLRSEDTAMYYCARGARATGWFAYWGQGTLVTVSA
VL: DIVMTQSQKFMSTSIGDRVSVTCKASQNVDTHVAWYQEKPGQSPKALIYSASYRYSGVPDRFTGSGSGTDFTLTISNVQSEDLADYFCQQYNSYPLTFGGGTKLEIK

— CN117751139A
